Measured values: article PMC11300717
These are yes or no findings as the source states them, for the method shown. Binding seen in cells or lysates may run through a third protein. These calls come from enrichment with a bait or labelling near it, and not all partners need be listed.

Amino acid sequences for entries named in this document (tags omitted).
UniProt P14618: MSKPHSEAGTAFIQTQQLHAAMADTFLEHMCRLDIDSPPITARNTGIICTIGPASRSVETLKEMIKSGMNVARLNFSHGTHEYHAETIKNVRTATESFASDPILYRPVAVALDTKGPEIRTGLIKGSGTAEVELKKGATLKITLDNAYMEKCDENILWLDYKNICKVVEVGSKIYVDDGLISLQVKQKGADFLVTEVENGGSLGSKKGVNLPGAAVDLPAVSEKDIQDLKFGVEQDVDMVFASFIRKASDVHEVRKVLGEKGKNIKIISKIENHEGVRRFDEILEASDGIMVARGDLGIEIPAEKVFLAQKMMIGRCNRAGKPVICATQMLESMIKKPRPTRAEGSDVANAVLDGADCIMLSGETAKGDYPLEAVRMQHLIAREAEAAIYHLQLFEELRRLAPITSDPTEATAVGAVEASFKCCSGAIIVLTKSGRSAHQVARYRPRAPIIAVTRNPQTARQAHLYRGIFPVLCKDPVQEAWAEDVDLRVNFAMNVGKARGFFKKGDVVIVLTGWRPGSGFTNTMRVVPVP
UniProt P19474: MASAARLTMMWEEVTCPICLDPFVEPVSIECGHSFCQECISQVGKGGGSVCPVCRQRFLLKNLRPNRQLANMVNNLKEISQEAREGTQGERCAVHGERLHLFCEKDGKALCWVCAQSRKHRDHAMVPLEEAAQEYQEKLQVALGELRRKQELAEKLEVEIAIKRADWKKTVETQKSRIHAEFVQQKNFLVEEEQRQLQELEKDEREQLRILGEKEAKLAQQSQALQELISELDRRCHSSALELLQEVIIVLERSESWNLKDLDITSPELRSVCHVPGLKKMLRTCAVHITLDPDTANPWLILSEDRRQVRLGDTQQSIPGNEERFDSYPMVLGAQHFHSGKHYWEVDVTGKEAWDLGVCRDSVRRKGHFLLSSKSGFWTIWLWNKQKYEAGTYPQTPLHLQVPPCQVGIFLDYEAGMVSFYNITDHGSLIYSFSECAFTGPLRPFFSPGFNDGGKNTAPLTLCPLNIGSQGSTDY

Each substance was assayed against NCAPH (non-SMC condensin I complex subunit H) (human (endogenous in HeLa)) (UniProt Q15003) (assay: affinity purification with mass spectrometry; HeLa total protein precipitated on agarose beads with anti-NCAPH antibody or IgG; SDS-PAGE, silver staining; the 50-70 kDa region that differed most was excised and analysed by mass spectrometry).

binding, binds:
GPI (from UniProt P06744 1-558)
PKM2 (from UniProt P14618 1-531)
Tripartite motif-containing protein 21 (TRIM21) (from UniProt P19474 1-475)
